Laboratory results: PMC3538741
These are yes or no findings as the source states them, for the method shown. Binding seen in cells or lysates may run through a third protein. Some entries that bind do so weakly or less than the wild type.

Chains of the proteins cited; added tags and fusions are not shown. Lines headed by an entry give the natural chain unless they say otherwise; changes in a name come on top. Residues count along the entry.
UniProt Q8N726: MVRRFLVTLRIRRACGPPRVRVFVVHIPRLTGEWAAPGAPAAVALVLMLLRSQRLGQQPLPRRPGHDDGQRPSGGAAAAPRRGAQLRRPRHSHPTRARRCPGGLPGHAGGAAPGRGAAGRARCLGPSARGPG
UniProt Q07021, residues 74-282: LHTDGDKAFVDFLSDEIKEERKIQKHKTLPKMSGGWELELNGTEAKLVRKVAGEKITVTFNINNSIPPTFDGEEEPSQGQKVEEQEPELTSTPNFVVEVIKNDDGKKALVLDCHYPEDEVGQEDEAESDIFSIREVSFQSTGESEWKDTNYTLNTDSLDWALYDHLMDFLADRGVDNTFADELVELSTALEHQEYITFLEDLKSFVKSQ

Legend:
Test in all cases: co-IP; 1 mg total extract of U2OS cells 24 h after transfection with X-press tagged ARF (wt or mutant) and MDM2 or myc tagged p32; IP with anti X-press antibody (legend of Fig. 3b: anti ARF), blot with anti MDM2, anti myc and anti ARF antibodies
[1] = biological target: X-press tagged p14ARF T8A mutant (human) (UniProt Q8N726)
[2] = biological target: X-press tagged p14ARF T8D mutant (human) (UniProt Q8N726)
[3] = biological target: X-press tagged wild type p14ARF (human) (UniProt Q8N726)

Measured: binding

myc tagged p32 (from UniProt Q07021 74-282)
binds: [1] | [2] | [3]
